Some entries share one result that the patent states for a list of compounds. Some compounds share one range, which may span the group rather than tell each member.
Target: T1, human cathepsin K (Homo sapiens, UniProt P43235)
T1 construct: Dr. Boris Turk (Josef Stefan Institute, Ljubljana, Slovenia)
T1 sequence (P43235 115-329): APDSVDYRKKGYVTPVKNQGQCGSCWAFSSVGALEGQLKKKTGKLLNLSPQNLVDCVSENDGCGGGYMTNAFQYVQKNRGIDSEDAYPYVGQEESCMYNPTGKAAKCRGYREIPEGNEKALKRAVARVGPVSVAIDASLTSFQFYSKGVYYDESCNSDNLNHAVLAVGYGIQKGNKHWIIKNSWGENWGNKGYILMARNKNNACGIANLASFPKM
Assay: Cathepsin K peptidase activity assay (Ki)
Assay type: biochemical
Procedure, shortened: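 Buffer: 10 mM bis-tris-propane pH 6.5, 1 mM EDTA, 5 mM 2-mercaptoethanol, 1 mM CaCl2; DMSO <1%. Ki assumed reversible, pure-competitive, from Ki^app=Ki(1+[So]/KM^app) by non-linear regression.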

Compound	Ki, inhibitors of cathepsin K [nM]
CC(C)C[C@H](NC(=O)c1ccc(C(C)(C)C)cc1)C(=O)N1CC[C@@H]2[C@H]1C(=O)CN2C(=O)c1csc(-c2ccccc2)n1 [Example 27, (3aR,6aS)-4-tert-Butyl-N-{(1S)-3-methyl-1-[6-oxo-4-(2-phenyl-thiazole-4-carbonyl)-hexahydro-pyrrolo[3,2-b]pyrrole-1-carbonyl]-butyl}-benzamide]	1 to 5000
CCC[C@H](NC(=O)c1ccc(N(C)C)cc1)C(=O)N1CC[C@@H]2[C@H]1C(=O)CN2C(=O)c1ccccc1 [Example 196, (3aR,6aS)-N-[(1S)-1-(4-Benzoyl-6-oxo-hexahydro-pyrrolo[3,2-b]pyrrole-1-carbonyl)-butyl]-4-dimethylamino-benzamide]	1 to 5000
COc1cc(OC)cc(C(=O)N2CC(=O)[C@@H]3[C@H]2CCN3C(=O)[C@H](CC(C)C)NC(=O)c2ccc(N(C)C)cc2)c1 [Example 112, (3aR,6aS)-N-{(1S)-1-[4-(3,5-Dimethoxy-benzoyl)-6-oxo-hexahydropyrrolo[3,2-b]pyrrole-1-carbonyl]-3-methyl-butyl}-4-dimethylamino-benzamide]	1 to 5000
CC(C)C[C@H](NC(=O)c1ccc(N(C)C)cc1)C(=O)N1CC[C@@H]2[C@H]1C(=O)CN2C(=O)c1ccc(N)cc1 [Example 50, (3aR,6aS)-N-{(1S)-1-[4-(4-Amino-benzoyl)-6-oxo-hexahydro-pyrrolo[3,2-b]pyrrole-1-carbonyl]-3-methyl-butyl}-4-dimethylamino-benzamide]	1 to 5000
CC(C)C[C@H](NC(=O)c1ccc(N(C)C)cc1)C(=O)N1CC[C@@H]2[C@H]1C(=O)CN2C(=O)c1ccsc1 [Example 164, (3aR,6aS)-4-Dimethylamino-N-{(1S)-3-methyl-1-[6-oxo-4-(thiophene-3-carbonyl)-hexahydro-pyrrolo[3,2-b]pyrrole-1-carbonyl]-butyl}-benzamide]	1 to 5000
CC(C)(C)c1ccc(C(=O)N[C@@H](Cc2cccs2)C(=O)N2CC[C@@H]3[C@H]2C(=O)CN3C(=O)c2ccccc2)cc1 [Example 22, (3aR,6aS)-N-[(1S)-2-(4-Benzoyl-6-oxo-hexahydro-pyrrolo[3,2-b]pyrrol-1-yl)-2-oxo-1-thiophen-2-ylmethyl-ethyl]-4-tert-butyl-benzamide]	1 to 5000
CC(C)C[C@H](NC(=O)c1ccc(N(C)C)cc1)C(=O)N1CC[C@@H]2[C@H]1C(=O)CN2C(=O)c1ccc[n+]([O-])c1 [Example 81, (3aR,6aS)-4-Dimethylamino-N-{(1S)-3-methyl-1-[6-oxo-4-(1-oxy-pyridine-3-carbonyl)-hexahydro-pyrrolo[3,2-b]pyrrole-1-carbonyl]-butyl}-benzamide]	1 to 5000
CC(C)C[C@H](NC(=O)c1ccccc1)C(=O)N1CC[C@@H]2[C@H]1C(=O)CN2C(=O)c1ccccc1 [Example 174, (3aR,6aS)-N-[(1S)-1-(4-Benzoyl-6-oxo-hexahydro-pyrrolo[3,2-b]pyrrole-1-carbonyl)-3-methyl-butyl]-benzamide]	1 to 5000
CC(=O)N[C@@H](CC(C)C)C(=O)N1CC(=O)[C@@H]2[C@H]1CCN2C(=O)[C@H](CC(C)C)NC(=O)c1ccc(N(C)C)cc1 [Example 151, (3aR,6aS)-N-{(1S)-1-[4-((2S)-2-Acetylamino-4-methyl-pentanoyl)-6-oxo-hexahydro-pyrrolo[3,2-b]pyrrole-1-carbonyl]-3-methyl-butyl}-4-dimethylamino-benzamide]	1 to 5000
CC(=O)Nc1ccsc1C(=O)N1CC(=O)[C@@H]2[C@H]1CCN2C(=O)[C@H](CC(C)C)NC(=O)c1ccc(N(C)C)cc1 [Example 165, (3aR,6aS)-N-{(1S)-[4-(3-Acetylamino-thiophene-2-carbonyl)-6-oxo-hexahydro-pyrrolo[3,2-b]pyrrole-1-carbonyl]-3-methyl-butyl}-4-dimethylamino-benzamide]	1 to 5000
